This passage reports binding results from publication doi:10.1101/2025.04.09.648038.

These are yes or no findings as the source states them, for the method shown. For part of these data: Binding can be weak; no strength is given. For part of these data: Binding seen in cells or lysates may run through a third protein.

For test [1], the target named is T1, Atg8 (yeast two-hybrid bait in pGBKT7) (S. pombe) (UniProt O94272).
T1 sequence: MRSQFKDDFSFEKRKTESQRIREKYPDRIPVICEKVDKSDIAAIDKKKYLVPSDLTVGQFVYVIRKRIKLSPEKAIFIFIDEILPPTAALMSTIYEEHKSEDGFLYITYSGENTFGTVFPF
The test is described as follows: two-hybrid.

Test [2] has as its target T2, Atg8 (construct of the co-immunoprecipitation) (S. pombe) (UniProt O94272).
T2 sequence: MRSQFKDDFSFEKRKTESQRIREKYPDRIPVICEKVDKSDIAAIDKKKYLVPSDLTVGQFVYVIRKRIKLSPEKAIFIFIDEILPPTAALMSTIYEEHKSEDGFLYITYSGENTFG
As to the kind of experiment: co-IP.

In the case of “Npr1 (yeast two-hybrid prey in pGADT7) (S. pombe)”, the binding result in test [1] was “binds”. Same read-out and setting: the same measure for “Npr1(W22A/V25A) (yeast two-hybrid prey in pGADT7) (S. pombe)”: “no binding”.

“Npr1-W22A/V25A (construct of the co-immunoprecipitation) (S. pombe)”: the binding result in test [2] is “no binding”.
